For one molecule, binding results are on record in patent EP4321174A1.

No constants are given. Whether binding was seen depends on the method and setting. In cells and extracts the contact can be indirect. Some binding calls cover weakened binding; strength is not graded here.

This test concerns the target APP 751 (amyloid precursor protein isoform 751) (UniProt P05067). Briefly: co-immunoprecipitation from HEK293FT lysates, western blot.

B1: CNTN4 #10 (full length, Ig1 to FN4) (receptor, UniProt Q8IWV2 19-1000, looked up)
chain: DDSTLHGPIFIQEPSPVMFPLDSEEKKVKLNCEVKGNPKPHIRWKLNGTDVDTGMDFRYSVVEGSLLINNPNKTQDAGTYQCTATNSFGTIVSREAKLQFAYLDNFKTRTRSTVSVRRGQGMVLLCGPPPHSGELSYAWIFNEYPSYQDNRRFVSQETGNLYIAKVEKSDVGNYTCVVTNTVTNHKVLGPPTPLILRNDGVMGEYEPKIEVQFPETVPTAKGATVKLECFALGNPVPTIIWRRADGKPIARKARRHKSNGILEIPNFQQEDAGLYECVAENSRGKNVARGQLTFYAQPNWIQKINDIHVAMEENVFWECKANGRPKPTYKWLKNGEPLLTRDRIQIEQGTLNITIVNLSDAGMYQCLAENKHGVIFSNAELSVIAVGPDFSRTLLKRVTLVKVGGEVVIECKPKASPKPVYTWKKGRDILKENERITISEDGNLRIINVTKSDAGSYTCIATNHFGTASSTGNLVVKDPTRVMVPPSSMDVTVGESIVLPCQVTHDHSLDIVFTWSFNGHLIDFDRDGDHFERVGGQDSAGDLMIRNIQLKHAGKYVCMVQTSVDRLSAAADLIVRGPPGPPEAVTIDEITDTTAQLSWRPGPDNHSPITMYVIQARTPFSVGWQAVSTVPELIDGKTFTATVVGLNPWVEYEFRTVAANVIGIGEPSRPSEKRRTEEALPEVTPANVSGGGGSKSELVITWETVPEELQNGRGFGYVVAFRPYGKMIWMLTVLASADASRYVFRNESVHPFSPFEVKVGVFNNKGEGPFSPTTVVYSAEEEPTKPPASIFARSLSATDIEVFWASPLEKNRGRIQGYEVKYWRHEDKEENARKIRTVGNQTSTKITNLKGSVLYHLAVKAYNSAGTGPSSATVNVTTRKPPPSQPPGNIIWNSSDSKIILNWDQVKALDNESEVKGYKVLYRWNRQSSTSVIETNKTSVELSLPFDEDYIIEIKPFSDGGDGSSSEQIRIPKISNAYARGS
As for B1, the binding entry is “binds”.
